This passage reports binding results from paper doi:10.1101/2025.11.29.691277.

Results are given in words; binding and its absence hold for the method and conditions named. In cells and extracts the contact can be indirect. A result given as binding can be weak or reduced; the word gives no strength. Tags and fused reporters may be left off the sequences shown.

Experiment [1] concerns the target T1, Chlamydomonas reinhardtii intraflagellar transport-20 (C. reinhardtii (endogenous in wild-type CC-125)) (UniProt Q8LLV9).
T1 sequence: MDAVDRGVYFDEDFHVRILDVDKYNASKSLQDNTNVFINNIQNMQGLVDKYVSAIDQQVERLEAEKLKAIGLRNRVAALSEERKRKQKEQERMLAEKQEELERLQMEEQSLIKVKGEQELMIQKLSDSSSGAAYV
Kind of experiment: co-IP.

The target in experiment [2] is Chlamydomonas reinhardtii channelrhodopsin-1 (C. reinhardtii (endogenous in wild-type CC-125)). As to the kind of experiment: co-IP.

Take “Chlamydomonas reinhardtii channelrhodopsin-1”: the binding result in experiment [1] is listed as “binds”.

B1: Chlamydomonas reinhardtii intraflagellar transport-20 (protein, UniProt Q8LLV9 1-135)
chain: MDAVDRGVYFDEDFHVRILDVDKYNASKSLQDNTNVFINNIQNMQGLVDKYVSAIDQQVERLEAEKLKAIGLRNRVAALSEERKRKQKEQERMLAEKQEELERLQMEEQSLIKVKGEQELMIQKLSDSSSGAAYV
In the case of B1, in experiment [2], the binding entry is reported as “binds”.
